Assay results: patent publication US20040214255A1
These are yes or no findings as the source states them, for the method shown. Binding can be weak; no strength is given. Blank lines part the entries; values can stand above or below the substance they belong to.

By UniProt entry, the sequences of proteins in these tests, tags left out. Where a name states a change or a piece, a line headed by the entry shows the natural chain unless it says otherwise. Residues count along the entry.
UniProt P27986, residues 1-250: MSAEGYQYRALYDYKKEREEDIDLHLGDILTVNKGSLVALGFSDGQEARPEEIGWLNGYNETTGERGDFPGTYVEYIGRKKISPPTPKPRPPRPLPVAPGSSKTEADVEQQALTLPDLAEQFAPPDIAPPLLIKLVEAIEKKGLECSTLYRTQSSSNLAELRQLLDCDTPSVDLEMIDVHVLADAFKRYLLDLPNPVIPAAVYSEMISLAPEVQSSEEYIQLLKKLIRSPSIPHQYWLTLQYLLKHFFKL
UniProt P42338, residues 1-300: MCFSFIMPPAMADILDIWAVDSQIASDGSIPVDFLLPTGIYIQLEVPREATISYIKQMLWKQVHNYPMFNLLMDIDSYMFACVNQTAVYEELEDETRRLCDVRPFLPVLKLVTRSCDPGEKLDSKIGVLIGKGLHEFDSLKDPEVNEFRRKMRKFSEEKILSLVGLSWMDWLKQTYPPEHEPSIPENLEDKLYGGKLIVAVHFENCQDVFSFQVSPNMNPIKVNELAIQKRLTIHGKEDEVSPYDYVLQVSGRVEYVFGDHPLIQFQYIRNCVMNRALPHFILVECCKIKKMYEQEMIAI
UniProt Q9UIQ6, residues 1-273: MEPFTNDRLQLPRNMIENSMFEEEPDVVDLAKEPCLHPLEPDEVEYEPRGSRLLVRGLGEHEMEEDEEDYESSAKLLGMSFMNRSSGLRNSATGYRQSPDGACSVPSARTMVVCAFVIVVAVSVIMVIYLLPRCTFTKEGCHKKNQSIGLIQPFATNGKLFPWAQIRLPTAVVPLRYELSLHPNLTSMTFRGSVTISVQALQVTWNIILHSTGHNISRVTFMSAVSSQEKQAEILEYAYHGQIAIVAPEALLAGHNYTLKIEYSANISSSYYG
UniProt P13521: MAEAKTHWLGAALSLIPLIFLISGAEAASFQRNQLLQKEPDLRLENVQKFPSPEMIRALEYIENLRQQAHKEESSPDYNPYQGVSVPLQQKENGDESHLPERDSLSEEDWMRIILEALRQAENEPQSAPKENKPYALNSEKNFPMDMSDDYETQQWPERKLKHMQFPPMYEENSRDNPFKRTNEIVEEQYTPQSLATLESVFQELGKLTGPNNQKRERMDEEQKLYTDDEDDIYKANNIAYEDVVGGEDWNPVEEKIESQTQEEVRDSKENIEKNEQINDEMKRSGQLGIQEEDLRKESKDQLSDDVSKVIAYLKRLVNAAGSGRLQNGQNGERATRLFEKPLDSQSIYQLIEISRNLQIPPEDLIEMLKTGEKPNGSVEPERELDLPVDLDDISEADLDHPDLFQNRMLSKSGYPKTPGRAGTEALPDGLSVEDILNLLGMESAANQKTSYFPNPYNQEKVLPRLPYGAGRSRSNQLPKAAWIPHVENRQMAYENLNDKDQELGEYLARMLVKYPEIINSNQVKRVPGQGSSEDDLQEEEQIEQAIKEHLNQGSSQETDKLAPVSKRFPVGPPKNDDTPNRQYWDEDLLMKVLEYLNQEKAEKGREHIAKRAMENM
UniProt P05067: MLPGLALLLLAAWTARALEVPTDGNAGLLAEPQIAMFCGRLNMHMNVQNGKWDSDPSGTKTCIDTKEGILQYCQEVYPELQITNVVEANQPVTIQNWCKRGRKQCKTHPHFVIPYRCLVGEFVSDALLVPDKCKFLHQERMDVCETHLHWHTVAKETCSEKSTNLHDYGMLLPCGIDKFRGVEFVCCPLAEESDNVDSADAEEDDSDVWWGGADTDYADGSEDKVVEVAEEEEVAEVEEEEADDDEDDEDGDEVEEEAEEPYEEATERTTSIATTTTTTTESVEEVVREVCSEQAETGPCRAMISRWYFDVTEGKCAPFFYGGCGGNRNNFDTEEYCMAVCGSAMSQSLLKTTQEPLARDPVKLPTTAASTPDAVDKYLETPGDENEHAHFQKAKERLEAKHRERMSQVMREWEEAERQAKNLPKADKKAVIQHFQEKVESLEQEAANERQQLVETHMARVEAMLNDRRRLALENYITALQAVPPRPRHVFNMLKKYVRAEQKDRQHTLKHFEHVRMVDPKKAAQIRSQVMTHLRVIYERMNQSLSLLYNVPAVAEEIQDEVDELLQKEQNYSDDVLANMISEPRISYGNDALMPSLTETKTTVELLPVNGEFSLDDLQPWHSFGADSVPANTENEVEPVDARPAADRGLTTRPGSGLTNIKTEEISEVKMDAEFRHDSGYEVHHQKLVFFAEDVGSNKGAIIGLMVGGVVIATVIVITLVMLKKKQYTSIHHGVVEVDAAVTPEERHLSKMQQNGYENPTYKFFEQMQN
UniProt P23471: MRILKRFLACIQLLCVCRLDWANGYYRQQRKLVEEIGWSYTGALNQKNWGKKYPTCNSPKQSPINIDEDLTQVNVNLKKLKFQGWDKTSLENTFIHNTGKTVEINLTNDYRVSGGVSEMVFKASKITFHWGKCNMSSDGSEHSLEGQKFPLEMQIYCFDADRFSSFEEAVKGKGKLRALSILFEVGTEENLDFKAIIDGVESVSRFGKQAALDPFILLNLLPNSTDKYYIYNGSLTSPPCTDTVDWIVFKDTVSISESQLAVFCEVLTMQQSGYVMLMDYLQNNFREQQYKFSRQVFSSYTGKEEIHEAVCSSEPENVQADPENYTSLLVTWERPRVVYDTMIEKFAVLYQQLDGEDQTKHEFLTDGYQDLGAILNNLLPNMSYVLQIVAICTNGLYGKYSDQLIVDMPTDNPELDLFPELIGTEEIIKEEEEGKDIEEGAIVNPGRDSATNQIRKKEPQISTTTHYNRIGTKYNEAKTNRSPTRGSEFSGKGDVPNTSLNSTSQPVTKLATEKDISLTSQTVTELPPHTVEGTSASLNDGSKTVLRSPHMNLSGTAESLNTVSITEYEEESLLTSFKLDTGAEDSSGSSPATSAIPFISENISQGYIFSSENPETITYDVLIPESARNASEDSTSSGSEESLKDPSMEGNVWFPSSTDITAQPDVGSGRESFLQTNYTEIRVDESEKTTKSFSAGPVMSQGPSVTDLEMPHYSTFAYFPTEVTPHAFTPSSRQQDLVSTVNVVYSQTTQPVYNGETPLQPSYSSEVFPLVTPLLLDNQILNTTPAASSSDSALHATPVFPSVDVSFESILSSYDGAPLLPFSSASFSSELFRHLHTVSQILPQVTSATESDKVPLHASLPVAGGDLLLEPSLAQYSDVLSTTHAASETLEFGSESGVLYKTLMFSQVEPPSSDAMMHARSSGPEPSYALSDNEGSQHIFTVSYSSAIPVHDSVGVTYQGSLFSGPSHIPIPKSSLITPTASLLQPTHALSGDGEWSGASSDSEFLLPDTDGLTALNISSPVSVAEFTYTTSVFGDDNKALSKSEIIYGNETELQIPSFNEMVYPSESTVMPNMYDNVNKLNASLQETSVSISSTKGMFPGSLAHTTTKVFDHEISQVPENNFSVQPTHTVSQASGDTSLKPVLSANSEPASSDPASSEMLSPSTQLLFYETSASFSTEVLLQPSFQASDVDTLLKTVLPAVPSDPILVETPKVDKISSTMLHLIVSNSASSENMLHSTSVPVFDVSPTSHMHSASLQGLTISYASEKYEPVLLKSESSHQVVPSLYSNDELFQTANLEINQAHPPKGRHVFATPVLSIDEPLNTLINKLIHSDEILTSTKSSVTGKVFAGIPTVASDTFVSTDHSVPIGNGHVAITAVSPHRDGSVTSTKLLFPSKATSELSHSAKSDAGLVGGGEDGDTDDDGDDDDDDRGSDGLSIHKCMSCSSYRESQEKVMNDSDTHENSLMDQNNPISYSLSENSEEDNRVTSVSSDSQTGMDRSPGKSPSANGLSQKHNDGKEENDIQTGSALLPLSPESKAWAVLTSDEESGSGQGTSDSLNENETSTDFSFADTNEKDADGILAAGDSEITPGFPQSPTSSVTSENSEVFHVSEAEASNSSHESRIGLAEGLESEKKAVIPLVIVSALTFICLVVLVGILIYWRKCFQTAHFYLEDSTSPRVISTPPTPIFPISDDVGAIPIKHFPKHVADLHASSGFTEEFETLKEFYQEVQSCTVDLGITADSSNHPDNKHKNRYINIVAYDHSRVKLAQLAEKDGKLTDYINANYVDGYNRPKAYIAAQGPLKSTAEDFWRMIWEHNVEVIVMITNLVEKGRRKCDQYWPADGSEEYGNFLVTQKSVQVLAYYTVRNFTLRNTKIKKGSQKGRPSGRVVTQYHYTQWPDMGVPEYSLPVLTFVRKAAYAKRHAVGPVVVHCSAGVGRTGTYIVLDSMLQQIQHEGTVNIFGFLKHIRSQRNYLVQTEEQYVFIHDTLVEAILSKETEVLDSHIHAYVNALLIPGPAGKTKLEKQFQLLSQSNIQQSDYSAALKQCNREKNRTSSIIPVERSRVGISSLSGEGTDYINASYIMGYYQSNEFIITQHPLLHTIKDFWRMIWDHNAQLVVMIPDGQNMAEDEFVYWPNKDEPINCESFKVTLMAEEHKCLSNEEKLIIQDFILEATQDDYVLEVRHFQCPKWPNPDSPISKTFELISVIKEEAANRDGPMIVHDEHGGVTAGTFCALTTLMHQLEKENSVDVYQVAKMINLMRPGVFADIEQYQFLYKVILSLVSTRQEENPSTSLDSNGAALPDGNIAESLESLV

What was measured:
Test in all cases: yeast two-hybrid
[1] = target: PI-3K85, amino acids 1-250 (human) (UniProt P27986)
[2] = target: PI-3 kinase p110 subunit, amino acids 1-300 (human) (UniProt P42338)
[3] = target: Insulin-Regulated Membrane-Spanning Aminopeptidase (IRAP), amino acids 1-273 (human) (UniProt Q9UIQ6)

- binding [1]: binds
Substance: Chromagranin, amino acids 2-322 (from UniProt P13521)

- binding [2]: binds
Substance: APP, amino acids 432-594 (from UniProt P05067)

- binding [3]: binds
Substance: PTPZ, amino acids 1470-1829 (from UniProt P23471) (enzyme)
